These are yes or no findings as the source states them, for the method shown. In cells and extracts the contact can be indirect. For part of these data: Binding calls can cover weak binding; strength is not graded here. For part of these data: Tags and fused reporters may be left off the sequences shown. One block for each molecule: values may come before it.
Tests used:
[1] = biological target: T1, Barren-HFHF (Drosophila melanogaster) (UniProt P91663); experiment: co-IP; proteins co-translated in vitro with [35S]methionine (reticulocyte lysate); anti-Flag agarose, 3 h at 4°C; autoradiography
T1 sequence: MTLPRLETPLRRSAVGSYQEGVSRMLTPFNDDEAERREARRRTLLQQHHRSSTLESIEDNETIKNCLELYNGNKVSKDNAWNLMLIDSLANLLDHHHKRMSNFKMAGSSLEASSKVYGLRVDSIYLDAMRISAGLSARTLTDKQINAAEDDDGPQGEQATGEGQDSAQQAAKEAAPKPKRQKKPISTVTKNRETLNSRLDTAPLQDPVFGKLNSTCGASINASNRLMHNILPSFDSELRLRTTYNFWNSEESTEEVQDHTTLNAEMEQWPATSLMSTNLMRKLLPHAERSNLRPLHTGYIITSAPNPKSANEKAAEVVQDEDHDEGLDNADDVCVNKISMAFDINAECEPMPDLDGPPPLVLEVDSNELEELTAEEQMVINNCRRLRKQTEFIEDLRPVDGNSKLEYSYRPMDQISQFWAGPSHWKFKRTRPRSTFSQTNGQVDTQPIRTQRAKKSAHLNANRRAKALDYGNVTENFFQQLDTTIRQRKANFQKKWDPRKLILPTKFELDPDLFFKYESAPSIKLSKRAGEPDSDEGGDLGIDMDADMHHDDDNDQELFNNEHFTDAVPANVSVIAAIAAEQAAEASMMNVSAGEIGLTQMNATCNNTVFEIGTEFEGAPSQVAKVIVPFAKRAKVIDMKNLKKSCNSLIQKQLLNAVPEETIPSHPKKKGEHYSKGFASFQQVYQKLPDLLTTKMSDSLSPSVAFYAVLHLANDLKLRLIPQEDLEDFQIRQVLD

Chains of the proteins cited; added tags and fusions are not shown. Lines headed by an entry give the natural chain unless they say otherwise; changes in a name come on top.
UniProt Q9VAJ1: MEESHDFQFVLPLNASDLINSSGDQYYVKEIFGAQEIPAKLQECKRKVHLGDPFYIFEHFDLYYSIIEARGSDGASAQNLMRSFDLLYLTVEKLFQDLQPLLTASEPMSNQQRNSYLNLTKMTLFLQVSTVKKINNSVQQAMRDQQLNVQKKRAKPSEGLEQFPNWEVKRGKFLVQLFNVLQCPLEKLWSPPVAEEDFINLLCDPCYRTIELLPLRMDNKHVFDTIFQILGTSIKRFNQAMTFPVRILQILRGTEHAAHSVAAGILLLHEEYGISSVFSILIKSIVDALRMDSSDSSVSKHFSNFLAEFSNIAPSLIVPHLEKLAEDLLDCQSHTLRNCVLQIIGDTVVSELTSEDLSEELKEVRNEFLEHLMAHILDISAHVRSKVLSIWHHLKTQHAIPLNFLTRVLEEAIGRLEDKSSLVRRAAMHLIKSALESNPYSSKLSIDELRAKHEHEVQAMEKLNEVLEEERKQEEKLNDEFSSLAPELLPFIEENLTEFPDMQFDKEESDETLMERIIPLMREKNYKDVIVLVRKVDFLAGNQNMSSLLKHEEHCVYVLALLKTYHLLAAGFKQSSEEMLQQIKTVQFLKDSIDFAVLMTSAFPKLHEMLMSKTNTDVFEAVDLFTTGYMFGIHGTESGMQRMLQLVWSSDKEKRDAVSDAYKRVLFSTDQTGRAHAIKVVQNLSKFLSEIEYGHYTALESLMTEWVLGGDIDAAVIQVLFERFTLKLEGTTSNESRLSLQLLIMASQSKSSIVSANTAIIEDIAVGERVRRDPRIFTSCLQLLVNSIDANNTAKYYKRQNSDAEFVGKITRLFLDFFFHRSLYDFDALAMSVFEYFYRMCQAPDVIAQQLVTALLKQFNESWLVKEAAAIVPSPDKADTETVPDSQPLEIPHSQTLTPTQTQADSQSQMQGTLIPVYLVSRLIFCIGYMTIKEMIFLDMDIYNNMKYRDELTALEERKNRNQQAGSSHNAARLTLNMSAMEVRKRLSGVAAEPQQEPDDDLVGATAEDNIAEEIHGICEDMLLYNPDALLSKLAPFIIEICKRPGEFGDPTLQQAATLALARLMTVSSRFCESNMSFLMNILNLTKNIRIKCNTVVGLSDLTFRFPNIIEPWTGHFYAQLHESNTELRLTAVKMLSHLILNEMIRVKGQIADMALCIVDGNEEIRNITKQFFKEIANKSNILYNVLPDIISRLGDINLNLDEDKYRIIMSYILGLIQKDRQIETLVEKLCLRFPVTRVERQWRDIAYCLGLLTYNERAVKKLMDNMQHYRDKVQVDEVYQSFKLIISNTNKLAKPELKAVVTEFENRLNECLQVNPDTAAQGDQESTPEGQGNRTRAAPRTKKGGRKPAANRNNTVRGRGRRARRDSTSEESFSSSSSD

[2] = biological target: T2, hSecurin-HFHF (human) (UniProt O95997); experiment: as above
T2 sequence: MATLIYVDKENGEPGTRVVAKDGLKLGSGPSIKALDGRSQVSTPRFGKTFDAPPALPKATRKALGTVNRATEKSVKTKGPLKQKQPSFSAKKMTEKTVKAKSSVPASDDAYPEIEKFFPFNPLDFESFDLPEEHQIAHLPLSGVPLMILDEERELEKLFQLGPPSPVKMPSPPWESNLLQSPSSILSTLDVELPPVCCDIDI

[3] = biological target: T1, Barren-HFHF (Drosophila melanogaster); experiment: co-IP; proteins translated in vitro in separate reactions with or without [35S]methionine, mixed; anti-Flag agarose, 3 h at 4°C; autoradiography and anti-Flag immunoblot
[4] = biological target: Cap-G^FL-EGFP (Drosophila melanogaster); experiment: co-IP; extracts of embryos expressing EGFP-fused Cap-G fragments; rabbit anti-EGFP antibodies cross-linked to Protein A-Sepharose; 4°C; lysis buffer 50 mM HEPES pH 7.5, 60 mM NaCl, 0.2% Triton X-100, 0.2% NP-40; elution in two steps; silver staining and immunoblot (Cap-D2, Cap-H/Barren)
[5] = biological target: myc-Cap-D2 (Drosophila melanogaster) (UniProt Q9VAJ1); experiment: co-IP; proteins translated in vitro in separate reactions with or without [35S]methionine, mixed (two or three proteins); anti-myc antibody beads, 3 h at 4°C; autoradiography and anti-myc immunoblot

binding [1]: binds
binding [2]: no binding
binding [3]: binds
Molecule: Cap-G (in vitro translated) (Drosophila melanogaster)

binding [1]: binds
binding [2]: no binding
Molecule: Cap-D2 (in vitro translated) (from UniProt Q9VAJ1)

binding [1]: binds
binding [2]: no binding
Molecule: SMC4 (in vitro translated) (Drosophila melanogaster)

binding [4]: binds
B1: Cap-H/Barren (endogenous) (protein, UniProt P91663 1-736)
chain: T1 sequence

binding [5]: binds
B2: Cap-H/Barren (in vitro translated, no epitope tag) (protein, UniProt P91663 1-736)
chain: T1 sequence

From publication PMC3630105
